In patent US20250120417A1, “FEED ADDITIVE COMPOSITIONS AND METHODS FOR USING THE SAME” (INT[…]&H DENMARK APS, priority 2021, published 2025):

Test system: HT-29 cells
Assay type: cell-based, human

For `NCCC[C@H](N)C(=O)O` [ornithine], the HT29 cell death was “approximately 32%”.
